Data source: PubChem BioAssay AID504774 (Drosophila RNAi Screening Center, 2011)
In all, the deposit lists about 23,000 reagents; this is an unselected part of those that have a named target and a result. 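Values are quantile-normalised luminescence on an arbitrary scale; higher means more cells surviving MMS.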 Names joined by + are all predicted targets of the reagent.

Test: 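Knock-downs that shift viability of MMS-exposed cells relative to untreated ones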 (primary screen)
Cell system: Drosophila Kc167 cells
Knock-down reagent: long dsRNA against Drosophila genes, about 0.25 µg dsRNA per well
Time to read-out: about 6 days: 3 days knock-down, then 3 days with or without MMS
Treatment: methyl methanesulphonate 0.004% (w/v) for 3 days after knock-down
Measurement: 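Viability in wells given MMS, read as ATP luminescence, normalised by quantiles plate by plate and averaged across replicates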
Direction: mean viability with MMS and viability with MMS: higher = more surviving cells after MMS

no.	target	DRSC id	mean viability with MMS	viability with MMS, replicate 1	viability with MMS, replicate 2
1	oc (ocelliless)	DRSC18808	3.47e6	3.96e6	3.93e6
2	CG2921	DRSC04324	3.51e6	4.14e6	3.81e6
3	CG2120	DRSC18207	3.64e6	4.29e6	3.97e6
4	CG3222	DRSC10355	3.69e6	4.08e6	4.22e6
5	eRF3 (eukaryotic translation release factor 3)	DRSC03322	3.36e6	3.82e6	3.77e6
6	CG5262	DRSC11773	3.53e6	4.08e6	3.91e6
7	Gas8 (Growth arrest specific protein 8)	DRSC22884	3.45e6	3.93e6	3.94e6
8	CG2694	DRSC18470	3.62e6	4.03e6	4.17e6
9	CG13791 (retired record)	DRSC02295	3.57e6	3.94e6	4.13e6
10	kuk (kugelkern)	DRSC15730	3.78e6	4.22e6	4.24e6
11	CG10395	DRSC04840	3.50e6	4.32e6	3.86e6
12	Rab5	DRSC00777	3.34e6	3.82e6	3.62e6
13	Dsor1 (Downstream of raf1)	DRSC18462	3.43e6	3.92e6	3.83e6
14	unc-5	DRSC05545	3.56e6	4.09e6	3.96e6
15	unc-5	DRSC07711	3.36e6	4.10e6	3.35e6
16	unc-5	DRSC07712	3.61e6	4.11e6	4.00e6
17	CG16787	DRSC04282	3.56e6	4.21e6	3.89e6
18	GM130 (Golgi matrix protein 130 kD)	DRSC04617	3.73e6	4.38e6	4.15e6
19	Syn1 + CG7370	DRSC22768	3.60e6	4.06e6	4.05e6
20	hydra	DRSC20497	3.54e6	4.10e6	3.94e6
21	DhpD (Dihydropterin deaminase)	DRSC12288	3.48e6	3.90e6	3.98e6
22	jus (julius seizure)	DRSC14861	3.13e6	3.56e6	3.58e6
23	jus (julius seizure)	DRSC14862	3.59e6	4.00e6	4.15e6
24	jus (julius seizure)	DRSC23018	3.48e6	4.07e6	3.87e6
25	mfrn (mitoferrin)	DRSC15687	3.21e6	3.62e6	3.60e6
26	Gr22e (Gustatory receptor 22e)	DRSC20912	2.07e6	4.04e6	4.04e6
27	Mur82C (Mucin related 82C)	DRSC12011	3.22e6	3.83e6	3.75e6
28	Mur82C (Mucin related 82C)	DRSC12212	3.64e6	4.01e6	4.02e6
29	Sardh (Sarcosine dehydrogenase)	DRSC06981	3.56e6	3.98e6	4.08e6
30	Creld (Cysteine rich with EGF like domains)	DRSC00308	3.54e6	3.98e6	4.06e6
31	Reg-2 (Rhythmically expressed gene 2)	DRSC08690	3.22e6	3.73e6	3.72e6
32	Dtwd2 + Obp84a	DRSC12603	3.57e6	3.96e6	4.15e6
33	Deaf1 (Deformed epidermal autoregulatory factor-1)	DRSC11143	3.54e6	4.12e6	3.82e6
34	Deaf1 (Deformed epidermal autoregulatory factor-1)	DRSC22786	3.28e6	3.90e6	3.80e6
35	eIF4E5 (eukaryotic translation initiation factor 4E5)	DRSC10975	3.37e6	3.76e6	3.83e6
36	CG43339 + CG43338	DRSC02466	3.59e6	4.13e6	4.04e6
37	CG2765	DRSC04315	3.47e6	4.01e6	3.98e6
38	Rpn5 (Regulatory particle non-ATPase 5)	DRSC12367	3.17e6	3.71e6	3.61e6
39	CG14963	DRSC08422	3.39e6	3.88e6	3.82e6
40	Vps53 (Vacuolar protein sorting 53)	DRSC00595	3.59e6	4.05e6	4.11e6
41	CG32106	DRSC09219	3.62e6	4.11e6	4.10e6
42	pad (poils au dos)	DRSC14227	3.56e6	4.05e6	4.05e6
43	shu (shutdown)	DRSC04484	3.46e6	4.06e6	3.71e6
44	CG10211	DRSC02027	3.19e6	3.64e6	3.68e6
45	CG30192	DRSC03977	3.49e6	3.98e6	3.95e6
46	Hmu (Hemomucin)	DRSC16705	3.54e6	4.09e6	3.93e6
47	Girdin	DRSC08292	3.44e6	3.91e6	3.90e6
48	CG44838	DRSC10330	2.93e6	3.56e6	3.56e6
49	CG44838	DRSC10371	3.51e6	4.03e6	3.92e6
50	LSm3 (Like Sm 3)	DRSC15920	3.67e6	4.13e6	4.18e6
51	CG4730	DRSC15633	3.69e6	4.11e6	4.24e6
52	CG13970	DRSC02311	3.58e6	4.05e6	4.07e6
53	CG12728	DRSC17883	3.61e6	3.98e6	3.94e6
54	Mettl14 (Methyltransferase like 14)	DRSC03073	3.68e6	4.20e6	4.18e6
55	l(2)k05819 (lethal (2) k05819)	DRSC00826	3.60e6	4.08e6	4.09e6
56	CG8642	DRSC07228	3.50e6	3.99e6	3.97e6
57	CG13725	DRSC10054	1.73e6	3.80e6	
58	CG30047	DRSC05340	3.50e6	3.94e6	4.02e6
59	CG46385	DRSC06425	2.94e6	3.51e6	3.52e6
60	CG46385	DRSC06557	3.42e6	3.84e6	3.94e6
61	Ugt49C1 (UDP-glycosyltransferase family 49 member C1)	DRSC04252	3.51e6	3.97e6	4.00e6
62	CG32459	DRSC11852	3.70e6	4.17e6	4.14e6
63	Pburs (Partner of Bursicon)	DRSC02483	3.62e6	4.11e6	4.09e6
64	Lcp65Ae	DRSC11212	3.66e6	4.05e6	4.27e6
65	CG32241	DRSC08100	3.60e6	4.07e6	4.10e6
66	CG32241	DRSC21518	3.58e6	4.06e6	4.06e6
67	tko (technical knockout)	DRSC18844	3.46e6	3.99e6	3.85e6
68	CG11122	DRSC19382	3.57e6	4.18e6	4.45e6
69	CG10591	DRSC09748	3.59e6	4.00e6	4.15e6
70	CG14100	DRSC10101	3.55e6	4.08e6	3.96e6
71	holn1 (hole-in-one)	DRSC02827	3.56e6	4.03e6	4.07e6
72	holn1 (hole-in-one)	DRSC22822	3.53e6	4.01e6	4.01e6
73	CG34423 + Mthfs	DRSC04088	3.77e6	4.31e6	4.17e6
74	CG7407	DRSC11824	3.67e6	4.16e6	4.13e6
75	CG13078	DRSC02182	3.43e6	3.90e6	3.84e6
76	Sirup (Starvation-upregulated protein)	DRSC03031	3.66e6	4.23e6	4.08e6
77	CG13991	DRSC02323	3.57e6	3.98e6	4.10e6
78	Vm26Ac (Vitelline membrane 26Aac)	DRSC02329	3.58e6	4.08e6	4.01e6
79	CG13559	DRSC04197	3.58e6	4.00e6	4.12e6
80	rno (rhinoceros)	DRSC08584	3.61e6	4.13e6	4.02e6
81	GATAe	DRSC14223	3.45e6	3.90e6	3.93e6
82	GATAe	DRSC23209	3.49e6	3.98e6	3.98e6
83	thetaTry (thetaTrypsin)	DRSC07705	3.78e6	4.29e6	4.48e6
84	CG12520	DRSC09892	3.56e6	4.08e6	3.99e6
85	CG32563	DRSC19934	3.44e6	3.80e6	3.98e6
86	hyx (hyrax)	DRSC14462	3.33e6	3.71e6	3.82e6
87	Burs (Bursicon)	DRSC14595	3.54e6	4.06e6	3.96e6

Laid out differently: entries from further up
CG32459 [DRSC11852] → mean viability with MMS = 3.70e6; viability with MMS, replicate 1 = 4.17e6; viability with MMS, replicate 2 = 4.14e6
Pburs (Partner of Bursicon) [DRSC02483] → mean viability with MMS = 3.62e6; viability with MMS, replicate 1 = 4.11e6; viability with MMS, replicate 2 = 4.09e6
Lcp65Ae [DRSC11212] → mean viability with MMS = 3.66e6; viability with MMS, replicate 1 = 4.05e6; viability with MMS, replicate 2 = 4.27e6
CG32241 [DRSC08100] → mean viability with MMS = 3.60e6; viability with MMS, replicate 1 = 4.07e6; viability with MMS, replicate 2 = 4.10e6
CG32241 [DRSC21518] → mean viability with MMS = 3.58e6; viability with MMS, replicate 1 = 4.06e6; viability with MMS, replicate 2 = 4.06e6
tko (technical knockout) [DRSC18844] → mean viability with MMS = 3.46e6; viability with MMS, replicate 1 = 3.99e6; viability with MMS, replicate 2 = 3.85e6
CG11122 [DRSC19382] → mean viability with MMS = 3.57e6; viability with MMS, replicate 1 = 4.18e6; viability with MMS, replicate 2 = 4.45e6
